PubChem BioAssay AID1224830 – NIAID | 2016
In all, the deposit lists about 18,000 reagents; this is an unselected part. In the full data, about 2,900 (16%) are marked active. 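Calls are made per well; low scores hint the gene aids the LPS response, high scores that it dampens it.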 Repeated entries: four replicate wells of each siRNA pool.

Test: 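Genes whose knock-down alters the TNF-alpha reporter response to LPS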 (primary screen)
System: human THP-1 monocytic leukaemia cells, TNF dual-luciferase reporter clone, PMA-differentiated to macrophage-like cells
Knock-down reagent: siRNA pool against human genes, 50 nM
Timing: LPS for 4 h, given about 3 days after siRNA transfection
Challenge: bacterial LPS (TLR4 ligand), 10 ng/ml
Detection: 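Ratio of firefly to renilla light, scaled to the plate median and expressed as a robust z-score per replicate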
Reading the numbers: TNF reporter robust z-score: higher = stronger TNF reporter response to LPS
Hit rule: 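a well is active when its z-score exceeds 2.8 or falls below -1.5; control wells carry no call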

| gene | TNF reporter robust z-score | outcome |
| --- | --- | --- |
| ZC2HC1A (zinc finger C2HC-type containing 1A) | 1.86 | inactive |
| ZC2HC1A (zinc finger C2HC-type containing 1A) | 1.04 | inactive |
| ZC2HC1A (zinc finger C2HC-type containing 1A) | -1.28 | inactive |
| ZC2HC1A (zinc finger C2HC-type containing 1A) | -0.4 | inactive |
| IQCF3 (IQ motif containing F3) | -1.09 | inactive |
| IQCF3 (IQ motif containing F3) | -1.45 | inactive |
| IQCF3 (IQ motif containing F3) | -2.03 | active |
| IQCF3 (IQ motif containing F3) | -1.36 | inactive |
| NFIB (nuclear factor I B) | -0.24 | inactive |
| NFIB (nuclear factor I B) | -0.15 | inactive |
| NFIB (nuclear factor I B) | -0.05 | inactive |
| NFIB (nuclear factor I B) | 0.9 | inactive |
| FGF23 (fibroblast growth factor 23) | -0.79 | inactive |
| FGF23 (fibroblast growth factor 23) | 0.34 | inactive |
| FGF23 (fibroblast growth factor 23) | -0.98 | inactive |
| FGF23 (fibroblast growth factor 23) | 0.11 | inactive |
| PSORS1C1 (psoriasis susceptibility 1 candidate 1) | -0.35 | inactive |
| PSORS1C1 (psoriasis susceptibility 1 candidate 1) | 0.63 | inactive |
| PSORS1C1 (psoriasis susceptibility 1 candidate 1) | -0.29 | inactive |
| PSORS1C1 (psoriasis susceptibility 1 candidate 1) | 0.36 | inactive |
| SLC6A5 | 0.06 | inactive |
| SLC6A5 | 2.2 | inactive |
| SLC6A5 | -0.93 | inactive |
| SLC6A5 | -0.46 | inactive |
| LHFPL1 (LHFPL tetraspan subfamily member 1) | -0.54 | inactive |
| LHFPL1 (LHFPL tetraspan subfamily member 1) | 0.03 | inactive |
| LHFPL1 (LHFPL tetraspan subfamily member 1) | -0.55 | inactive |
| LHFPL1 (LHFPL tetraspan subfamily member 1) | -1.3 | inactive |
| DBNL (drebrin like) | -0.18 | inactive |
| DBNL (drebrin like) | 0.69 | inactive |
| DBNL (drebrin like) | -0.26 | inactive |
| DBNL (drebrin like) | 0.92 | inactive |
| SCGB1D2 (secretoglobin family 1D member 2) | 2.51 | inactive |
| SCGB1D2 (secretoglobin family 1D member 2) | 3.25 | active |
| SCGB1D2 (secretoglobin family 1D member 2) | 2.36 | inactive |
| SCGB1D2 (secretoglobin family 1D member 2) | 3.41 | active |
| ZNF302 (zinc finger protein 302) | – | inactive |
| ZNF302 (zinc finger protein 302) | -0.15 | inactive |
| ZNF302 (zinc finger protein 302) | -0.18 | inactive |
| ZNF302 (zinc finger protein 302) | -0.19 | inactive |
| PIPOX (pipecolic acid and sarcosine oxidase) | 0.85 | inactive |
| PIPOX (pipecolic acid and sarcosine oxidase) | 2.72 | inactive |
| PIPOX (pipecolic acid and sarcosine oxidase) | 1.2 | inactive |
| PIPOX (pipecolic acid and sarcosine oxidase) | 1.45 | inactive |
| TAF15 (TATA-box binding protein associated factor 15) | -1.5 | inactive |
| TAF15 (TATA-box binding protein associated factor 15) | -0.89 | inactive |
| TAF15 (TATA-box binding protein associated factor 15) | -0.93 | inactive |
| TAF15 (TATA-box binding protein associated factor 15) | 0.55 | inactive |
| HPCAL4 (hippocalcin like 4) | -0.8 | inactive |
| HPCAL4 (hippocalcin like 4) | -1.52 | active |
| HPCAL4 (hippocalcin like 4) | -1.34 | inactive |
| HPCAL4 (hippocalcin like 4) | -1.24 | inactive |
| TULP1 (TUB like protein 1) | 1.22 | inactive |
| TULP1 (TUB like protein 1) | 0.78 | inactive |
| TULP1 (TUB like protein 1) | 0.19 | inactive |
| TULP1 (TUB like protein 1) | 0.28 | inactive |
| PCDHAC1 (protocadherin alpha subfamily C, 1) | -0.64 | inactive |
| PCDHAC1 (protocadherin alpha subfamily C, 1) | -1.05 | inactive |
| PCDHAC1 (protocadherin alpha subfamily C, 1) | -0.79 | inactive |
| APOBEC3G (apolipoprotein B mRNA editing enzyme catalytic subunit 3G) | 0.68 | inactive |
| APOBEC3G (apolipoprotein B mRNA editing enzyme catalytic subunit 3G) | -0.82 | inactive |
| APOBEC3G (apolipoprotein B mRNA editing enzyme catalytic subunit 3G) | 0.35 | inactive |
| APOBEC3G (apolipoprotein B mRNA editing enzyme catalytic subunit 3G) | 0.27 | inactive |

The list goes on; the last 3 above are carried over.
| gene | TNF reporter robust z-score | outcome |
| --- | --- | --- |
| APOBEC3G (apolipoprotein B mRNA editing enzyme catalytic subunit 3G) | -0.82 | inactive |
| APOBEC3G (apolipoprotein B mRNA editing enzyme catalytic subunit 3G) | 0.35 | inactive |
| APOBEC3G (apolipoprotein B mRNA editing enzyme catalytic subunit 3G) | 0.27 | inactive |
| GCC1 (GRIP and coiled-coil domain containing 1) | 0.06 | inactive |
| GCC1 (GRIP and coiled-coil domain containing 1) | 1.62 | inactive |
| GCC1 (GRIP and coiled-coil domain containing 1) | 0.48 | inactive |
| GCC1 (GRIP and coiled-coil domain containing 1) | 0.89 | inactive |
| ZNF226 (zinc finger protein 226) | 0.04 | inactive |
| ZNF226 (zinc finger protein 226) | 0.11 | inactive |
| ZNF226 (zinc finger protein 226) | 1.28 | inactive |
| ZNF226 (zinc finger protein 226) | 2.21 | inactive |
| AGAP3 (ArfGAP with GTPase domain, ankyrin repeat and PH domain 3) | 0.27 | inactive |
| AGAP3 (ArfGAP with GTPase domain, ankyrin repeat and PH domain 3) | 1.46 | inactive |
| AGAP3 (ArfGAP with GTPase domain, ankyrin repeat and PH domain 3) | 1.85 | inactive |
| AGAP3 (ArfGAP with GTPase domain, ankyrin repeat and PH domain 3) | 0.38 | inactive |
| MTIF2 (mitochondrial translational initiation factor 2) | -1.25 | inactive |
| MTIF2 (mitochondrial translational initiation factor 2) | 1.42 | inactive |
| MTIF2 (mitochondrial translational initiation factor 2) | 0.22 | inactive |
| MTIF2 (mitochondrial translational initiation factor 2) | -0.38 | inactive |
| MED30 (mediator complex subunit 30) | -0.01 | inactive |
| MED30 (mediator complex subunit 30) | -0.19 | inactive |
| MED30 (mediator complex subunit 30) | -0.82 | inactive |
| MED30 (mediator complex subunit 30) | 0.08 | inactive |
| IFNLR1 (interferon lambda receptor 1) | 2.78 | inactive |
| IFNLR1 (interferon lambda receptor 1) | 3.58 | active |
| IFNLR1 (interferon lambda receptor 1) | 3.95 | active |
| IFNLR1 (interferon lambda receptor 1) | 4.68 | active |
| SAG (S-antigen visual arrestin) | -0.59 | inactive |
| SAG (S-antigen visual arrestin) | -0.54 | inactive |
| SAG (S-antigen visual arrestin) | -0.72 | inactive |
| SAG (S-antigen visual arrestin) | -0.68 | inactive |
| HEXIM1 (HEXIM P-TEFb complex subunit 1) | -0.38 | inactive |
| HEXIM1 (HEXIM P-TEFb complex subunit 1) | -1.06 | inactive |
| HEXIM1 (HEXIM P-TEFb complex subunit 1) | -1.19 | inactive |
| HEXIM1 (HEXIM P-TEFb complex subunit 1) | -0.72 | inactive |
| LCE3A (late cornified envelope 3A) | 1.78 | inactive |
| LCE3A (late cornified envelope 3A) | 1.85 | inactive |
| LCE3A (late cornified envelope 3A) | 1.28 | inactive |
| LCE3A (late cornified envelope 3A) | 1.18 | inactive |
| OR52B6 (olfactory receptor family 52 subfamily B member 6) | -0.25 | inactive |
| OR52B6 (olfactory receptor family 52 subfamily B member 6) | 0.03 | inactive |
| OR52B6 (olfactory receptor family 52 subfamily B member 6) | -0.06 | inactive |
| OR52B6 (olfactory receptor family 52 subfamily B member 6) | 4.11 | active |
| MTM1 (myotubularin 1) | 1.44 | inactive |
| MTM1 (myotubularin 1) | -0.08 | inactive |
| MTM1 (myotubularin 1) | -0.38 | inactive |
| MTM1 (myotubularin 1) | 0.55 | inactive |
| CHP1 (calcineurin like EF-hand protein 1) | -0.12 | inactive |
| CHP1 (calcineurin like EF-hand protein 1) | -0.57 | inactive |
| CHP1 (calcineurin like EF-hand protein 1) | -0.35 | inactive |
| CHP1 (calcineurin like EF-hand protein 1) | -0.21 | inactive |
